Test results published in article PMC12449798.
These are yes or no findings as the source states them, for the method shown. Binding seen in cells or lysates may run through a third protein. Binding can be weak; no strength is given. Tags and fused reporters may be left off the sequences shown.

T1: O-linked N-acetylglucosamine (GlcNAc) transferase (pig (endogenous in porcine granulosa cells)) (UniProt Q27HV0)
T1 sequence: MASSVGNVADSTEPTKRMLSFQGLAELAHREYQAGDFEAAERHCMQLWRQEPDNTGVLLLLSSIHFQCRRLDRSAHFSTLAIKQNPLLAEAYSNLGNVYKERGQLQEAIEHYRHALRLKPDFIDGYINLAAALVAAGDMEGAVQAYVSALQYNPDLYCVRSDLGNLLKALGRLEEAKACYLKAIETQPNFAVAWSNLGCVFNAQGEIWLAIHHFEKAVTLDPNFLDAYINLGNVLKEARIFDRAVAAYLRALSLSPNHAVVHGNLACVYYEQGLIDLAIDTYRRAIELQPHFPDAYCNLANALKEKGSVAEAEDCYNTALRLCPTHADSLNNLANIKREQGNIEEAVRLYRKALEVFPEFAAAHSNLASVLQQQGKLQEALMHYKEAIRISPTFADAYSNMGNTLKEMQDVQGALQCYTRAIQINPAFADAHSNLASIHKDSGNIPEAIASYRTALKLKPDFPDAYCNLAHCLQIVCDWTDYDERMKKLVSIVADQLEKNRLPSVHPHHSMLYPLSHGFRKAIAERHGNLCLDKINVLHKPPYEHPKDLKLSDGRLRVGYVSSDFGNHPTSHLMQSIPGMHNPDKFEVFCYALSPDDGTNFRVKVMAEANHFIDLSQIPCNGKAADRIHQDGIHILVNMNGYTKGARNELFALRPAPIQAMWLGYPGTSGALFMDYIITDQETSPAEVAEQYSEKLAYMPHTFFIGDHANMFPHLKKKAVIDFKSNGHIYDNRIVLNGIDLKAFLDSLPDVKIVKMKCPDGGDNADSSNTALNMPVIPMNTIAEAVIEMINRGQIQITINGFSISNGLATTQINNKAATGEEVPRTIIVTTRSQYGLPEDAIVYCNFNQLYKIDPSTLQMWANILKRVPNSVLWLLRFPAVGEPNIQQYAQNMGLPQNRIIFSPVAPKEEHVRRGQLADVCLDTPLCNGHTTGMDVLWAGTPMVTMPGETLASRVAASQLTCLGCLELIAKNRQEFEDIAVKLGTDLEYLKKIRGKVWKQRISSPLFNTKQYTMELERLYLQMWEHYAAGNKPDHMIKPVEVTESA


How the values were obtained:
[1] = molecular target: T1, O-linked N-acetylglucosamine (GlcNAc) transferase (pig (endogenous in porcine granulosa cells)); test: co-IP; endogenous proteins in whole-cell lysates of porcine granulosa cells under hypoxic conditions (1% O2), transfected with siNC, siHIF1A#1 or siHIF1A#3; antibody overnight at 4 °C, protein A/G magnetic beads, immunoblot
[2] = molecular target: vascular endothelial zinc finger 1 (pig (endogenous in porcine granulosa cells)); test: as above

Row | binding [1] | binding [2] | Molecule
1 | binds | – | beta-transducin repeat containing protein
2 | – | binds | O-linked N-acetylglucosamine (GlcNAc) transferase (enzyme, UniProt Q27HV0 1-1046) MASSVGNVADSTEPTKRMLSFQGLAELAHREYQAGDFEAAERHCMQLWRQEPDNTGVLLLLSSIHFQCRRLDRSAHFSTLAIKQNPLLAEAYSNLGNVYKERGQLQEAIEHYRHALRLKPDFIDGYINLAAALVAAGDMEGAVQAYVSALQYNPDLYCVRSDLGNLLKALGRLEEAKACYLKAIETQPNFAVAWSNLGCVFNAQGEIWLAIHHFEKAVTLDPNFLDAYINLGNVLKEARIFDRAVAAYLRALSLSPNHAVVHGNLACVYYEQGLIDLAIDTYRRAIELQPHFPDAYCNLANALKEKGSVAEAEDCYNTALRLCPTHADSLNNLANIKREQGNIEEAVRLYRKALEVFPEFAAAHSNLASVLQQQGKLQEALMHYKEAIRISPTFADAYSNMGNTLKEMQDVQGALQCYTRAIQINPAFADAHSNLASIHKDSGNIPEAIASYRTALKLKPDFPDAYCNLAHCLQIVCDWTDYDERMKKLVSIVADQLEKNRLPSVHPHHSMLYPLSHGFRKAIAERHGNLCLDKINVLHKPPYEHPKDLKLSDGRLRVGYVSSDFGNHPTSHLMQSIPGMHNPDKFEVFCYALSPDDGTNFRVKVMAEANHFIDLSQIPCNGKAADRIHQDGIHILVNMNGYTKGARNELFALRPAPIQAMWLGYPGTSGALFMDYIITDQETSPAEVAEQYSEKLAYMPHTFFIGDHANMFPHLKKKAVIDFKSNGHIYDNRIVLNGIDLKAFLDSLPDVKIVKMKCPDGGDNADSSNTALNMPVIPMNTIAEAVIEMINRGQIQITINGFSISNGLATTQINNKAATGEEVPRTIIVTTRSQYGLPEDAIVYCNFNQLYKIDPSTLQMWANILKRVPNSVLWLLRFPAVGEPNIQQYAQNMGLPQNRIIFSPVAPKEEHVRRGQLADVCLDTPLCNGHTTGMDVLWAGTPMVTMPGETLASRVAASQLTCLGCLELIAKNRQEFEDIAVKLGTDLEYLKKIRGKVWKQRISSPLFNTKQYTMELERLYLQMWEHYAAGNKPDHMIKPVEVTESA
